Results from publication doi:10.1101/2021.03.25.21253623.
Results are given in words; binding and its absence hold for the method and conditions named. Binding seen in cells or lysates may run through a third protein. Some binding calls cover weakened binding; strength is not graded here.

Sequences of proteins named here, by UniProt entry; tags and fusion partners are left off. A change or cut given only in a name is not applied to a line headed by its entry.
UniProt Q5S006, whole entry: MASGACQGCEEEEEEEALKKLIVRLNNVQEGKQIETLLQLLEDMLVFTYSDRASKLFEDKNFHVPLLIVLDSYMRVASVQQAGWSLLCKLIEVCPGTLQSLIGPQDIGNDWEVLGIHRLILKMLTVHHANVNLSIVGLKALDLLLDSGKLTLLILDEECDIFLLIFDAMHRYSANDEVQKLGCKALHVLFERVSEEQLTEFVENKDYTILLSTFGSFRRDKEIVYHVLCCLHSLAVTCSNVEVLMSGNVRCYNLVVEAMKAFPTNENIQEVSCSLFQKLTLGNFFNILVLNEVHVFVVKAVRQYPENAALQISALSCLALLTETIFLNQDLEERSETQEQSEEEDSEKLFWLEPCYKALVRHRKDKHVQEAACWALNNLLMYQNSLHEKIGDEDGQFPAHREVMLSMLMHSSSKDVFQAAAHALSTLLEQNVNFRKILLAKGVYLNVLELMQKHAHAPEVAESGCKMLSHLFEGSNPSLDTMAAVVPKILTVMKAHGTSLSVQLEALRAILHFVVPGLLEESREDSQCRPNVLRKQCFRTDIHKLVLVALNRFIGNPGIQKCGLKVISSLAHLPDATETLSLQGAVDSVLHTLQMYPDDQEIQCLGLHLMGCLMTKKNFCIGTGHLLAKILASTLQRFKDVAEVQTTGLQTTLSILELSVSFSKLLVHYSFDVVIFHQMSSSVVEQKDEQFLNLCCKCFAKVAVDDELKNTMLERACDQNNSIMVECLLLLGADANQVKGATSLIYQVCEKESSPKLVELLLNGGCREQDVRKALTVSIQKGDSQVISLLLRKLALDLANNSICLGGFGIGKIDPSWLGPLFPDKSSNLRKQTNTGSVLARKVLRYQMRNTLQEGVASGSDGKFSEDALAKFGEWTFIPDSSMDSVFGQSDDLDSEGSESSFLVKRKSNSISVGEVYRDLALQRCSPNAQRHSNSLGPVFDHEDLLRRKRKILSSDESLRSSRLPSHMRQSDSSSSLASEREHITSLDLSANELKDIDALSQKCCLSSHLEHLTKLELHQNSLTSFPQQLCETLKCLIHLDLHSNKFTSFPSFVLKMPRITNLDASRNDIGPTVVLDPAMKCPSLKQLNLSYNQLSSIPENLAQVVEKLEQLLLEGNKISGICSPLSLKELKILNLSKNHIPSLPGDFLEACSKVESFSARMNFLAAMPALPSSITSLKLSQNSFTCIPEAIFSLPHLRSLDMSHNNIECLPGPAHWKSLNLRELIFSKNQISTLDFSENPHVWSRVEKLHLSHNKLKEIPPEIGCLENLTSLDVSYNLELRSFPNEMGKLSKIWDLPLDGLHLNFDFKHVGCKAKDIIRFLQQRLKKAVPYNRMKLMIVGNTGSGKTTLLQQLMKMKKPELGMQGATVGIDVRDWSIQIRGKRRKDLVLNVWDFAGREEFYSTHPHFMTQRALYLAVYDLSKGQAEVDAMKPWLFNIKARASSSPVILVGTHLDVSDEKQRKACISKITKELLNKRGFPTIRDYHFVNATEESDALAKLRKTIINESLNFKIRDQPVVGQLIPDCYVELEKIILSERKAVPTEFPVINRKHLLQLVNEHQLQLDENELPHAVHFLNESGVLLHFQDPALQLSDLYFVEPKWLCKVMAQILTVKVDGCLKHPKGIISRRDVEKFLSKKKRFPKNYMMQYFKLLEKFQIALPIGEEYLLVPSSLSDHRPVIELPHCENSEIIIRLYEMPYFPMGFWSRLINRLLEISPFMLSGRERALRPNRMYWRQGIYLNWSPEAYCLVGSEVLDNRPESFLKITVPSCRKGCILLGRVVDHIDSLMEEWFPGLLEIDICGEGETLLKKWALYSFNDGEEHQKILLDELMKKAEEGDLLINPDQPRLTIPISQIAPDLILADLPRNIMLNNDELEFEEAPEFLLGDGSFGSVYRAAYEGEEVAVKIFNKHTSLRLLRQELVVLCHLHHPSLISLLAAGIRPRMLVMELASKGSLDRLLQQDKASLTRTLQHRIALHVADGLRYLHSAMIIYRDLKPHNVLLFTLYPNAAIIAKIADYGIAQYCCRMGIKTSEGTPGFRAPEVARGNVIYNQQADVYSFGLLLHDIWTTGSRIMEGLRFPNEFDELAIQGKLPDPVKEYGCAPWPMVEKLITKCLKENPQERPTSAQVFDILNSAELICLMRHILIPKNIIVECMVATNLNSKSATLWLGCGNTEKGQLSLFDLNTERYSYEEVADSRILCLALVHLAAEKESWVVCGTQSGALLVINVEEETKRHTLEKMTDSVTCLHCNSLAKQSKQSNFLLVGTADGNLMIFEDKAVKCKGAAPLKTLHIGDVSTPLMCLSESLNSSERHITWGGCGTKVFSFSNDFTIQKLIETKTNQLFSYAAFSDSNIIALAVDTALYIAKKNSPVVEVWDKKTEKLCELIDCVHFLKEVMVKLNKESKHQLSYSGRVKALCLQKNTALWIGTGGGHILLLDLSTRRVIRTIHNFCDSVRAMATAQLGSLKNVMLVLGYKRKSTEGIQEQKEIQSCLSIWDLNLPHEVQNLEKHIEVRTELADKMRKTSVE
UniProt Q9HC29, whole entry: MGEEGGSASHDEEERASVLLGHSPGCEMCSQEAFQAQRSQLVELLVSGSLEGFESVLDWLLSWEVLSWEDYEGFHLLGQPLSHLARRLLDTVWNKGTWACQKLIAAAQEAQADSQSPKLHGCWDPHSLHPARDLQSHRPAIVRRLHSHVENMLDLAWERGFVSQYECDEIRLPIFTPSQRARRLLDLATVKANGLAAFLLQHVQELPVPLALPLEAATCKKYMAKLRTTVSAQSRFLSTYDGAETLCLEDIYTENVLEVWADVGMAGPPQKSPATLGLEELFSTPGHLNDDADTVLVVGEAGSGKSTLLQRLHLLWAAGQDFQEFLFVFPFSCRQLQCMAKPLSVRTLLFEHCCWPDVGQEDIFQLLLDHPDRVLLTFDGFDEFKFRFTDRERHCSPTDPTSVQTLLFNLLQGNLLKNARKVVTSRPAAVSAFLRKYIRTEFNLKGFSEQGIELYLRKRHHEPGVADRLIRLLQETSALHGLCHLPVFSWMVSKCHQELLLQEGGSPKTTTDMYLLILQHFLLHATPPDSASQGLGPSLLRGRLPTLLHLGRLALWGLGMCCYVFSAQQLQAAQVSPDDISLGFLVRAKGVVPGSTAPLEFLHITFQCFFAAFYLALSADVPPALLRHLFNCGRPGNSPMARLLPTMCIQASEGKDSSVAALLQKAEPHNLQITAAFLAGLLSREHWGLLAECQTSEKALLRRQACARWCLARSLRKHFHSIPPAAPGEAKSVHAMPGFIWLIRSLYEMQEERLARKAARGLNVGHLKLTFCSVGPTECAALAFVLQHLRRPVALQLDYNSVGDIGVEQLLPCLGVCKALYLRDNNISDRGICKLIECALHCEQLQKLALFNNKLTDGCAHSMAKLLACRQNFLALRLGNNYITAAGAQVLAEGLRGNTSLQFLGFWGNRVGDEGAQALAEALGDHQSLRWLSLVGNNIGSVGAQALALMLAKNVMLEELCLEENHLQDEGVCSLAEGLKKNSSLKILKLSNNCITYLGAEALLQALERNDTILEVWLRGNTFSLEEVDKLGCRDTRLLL

How the values were obtained:
[1] = target: LRRK2 wild-type (mouse (endogenous in RAW264.7)) (UniProt Q5S006); experiment: co-IP
[2] = target: LRRK2 N551K/R1398H double mutant (mouse (endogenous in RAW264.7)) (UniProt Q5S006); experiment: co-IP

“FLAG-tagged NOD2 wild-type (from UniProt Q9HC29 1-1040)” was tested. Which binding [1] did it give?
Its binding is “binds”.

What about the binding [2] of the same substance?
Its binding is “binds”.
